Measured values taken from PMC8208582, “Crosstalk between H2A variant-specific modifications impacts vital cell functions” (PLoS Genetics, 2021).
No constants are given. Whether binding was seen depends on the method and setting. In cells and extracts the contact can be indirect. Some results given as binding are weak or reduced against the parent protein; the word gives no strength.

The chains behind the UniProt entries cited, without tags or fusion partners. Where a name states a change or a piece, a line headed by the entry shows the natural chain unless it says otherwise.
UniProt Q94F49: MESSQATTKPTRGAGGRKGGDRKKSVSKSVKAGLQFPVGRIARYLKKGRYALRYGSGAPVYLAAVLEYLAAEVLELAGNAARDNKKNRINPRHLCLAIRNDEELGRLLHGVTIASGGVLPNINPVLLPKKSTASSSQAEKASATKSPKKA
UniProt Q9FJE8: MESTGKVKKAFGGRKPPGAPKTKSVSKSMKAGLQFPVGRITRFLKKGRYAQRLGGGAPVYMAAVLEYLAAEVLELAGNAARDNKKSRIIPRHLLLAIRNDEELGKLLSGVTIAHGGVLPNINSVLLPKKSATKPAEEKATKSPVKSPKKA

Experiments:
[1] = target: H2A.W.7 (endogenous, in mononucleosomes) (Arabidopsis (endogenous in leaves)) (UniProt Q94F49); assay: co-IP; mononucleosomes from MNase digested nuclear extracts of WT Arabidopsis leaves; H2A.W.6 or H2A.W.7 specific antibodies on protein A magnetic beads, overnight 4°C, washes with 300, 500 and 150 mM NaCl; western blot
[2] = target: H2A.W.6 (endogenous, in mononucleosomes) (Arabidopsis (endogenous in leaves)) (UniProt Q9FJE8); assay: as above

binding [1]	binding [2]	Substance
binds	–	H2A.W.6 (endogenous, in mononucleosomes) (from UniProt Q9FJE8 1-150)
–	binds	H2A.W.7 (endogenous, in mononucleosomes) (from UniProt Q94F49 1-150)
